The values that follow come from paper PMC7819943, “Rice protein-binding microarrays: a tool to detect cis-acting elements near promoter regions in rice”.

Sequences of proteins named here, by UniProt entry; tags and fusion partners are left off.
UniProt Q0JBA9, entry or part of it: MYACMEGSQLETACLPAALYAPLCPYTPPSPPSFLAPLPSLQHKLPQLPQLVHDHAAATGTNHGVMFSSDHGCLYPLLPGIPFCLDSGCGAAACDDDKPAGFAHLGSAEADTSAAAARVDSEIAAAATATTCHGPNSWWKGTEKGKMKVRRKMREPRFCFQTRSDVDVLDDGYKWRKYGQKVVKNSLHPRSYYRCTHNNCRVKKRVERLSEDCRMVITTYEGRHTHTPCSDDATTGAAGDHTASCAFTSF

This is one part of the list.

For this assay, the target named is OsWRKY34 (Oryza sativa, UniProt Q0JBA9 1-250). The assay is described as follows: protein-binding microarray (RPBM); PBS, 2% BSA, 51.3 ng/ul salmon testes DNA, 50 uM zinc acetate, 200 nM TF, 25 C, 1 h; high values mean tight binding. The following applies: protein: recombinant; tags: N-terminal polyhistidine and DsRed monomer fusion (pET32a); label: CyDye5-dUTP incorporated in the synthesized complementary strand; 3' TTTTT single-stranded linker to array surface; dsDNA, one strand shown. The method in brief:
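Ni–NTA purification followed expression in E. coli BL21-CodonPlus of transcription factors fused N-terminally to a polyhistidine tag and DsRed. At 200 nM in PBS with 2% BSA, salmon testes DNA and 50 µM zinc acetate, the protein was incubated for 1 h at 25 °C with a custom Agilent array that had been primer-extended with Cy5-dUTP and blocked with 2% BSA. After washing, the array was read on an Axon 4000B scanner. The binding signal is per-feature fluorescence intensity in arbitrary units.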
On to “TGGGGTCGGCACACTGTATTCCAATCGACCAAACAATTGCCGGAGTCACCTAGTGCAG”, for which the binding signal is 8250 fluorescence intensity (a.u.).

As for “ACATTACACTTTGCTTCATTTGCTTCACACTCACTCAAGCCGGAGTCACCTAGTGCAG”, the binding signal is 12200 fluorescence intensity (a.u.).

For “ACGCGGTATATGGATATCAGGATATGATGGGTACAAACTGCGGAGTCACCTAGTGCAG”, the binding signal is 9560 fluorescence intensity (a.u.).

“AGCCATTTTCATTCCTATCTGGAACGCATGCATATTACACCGGAGTCACCTAGTGCAG”: the binding signal was 9430 fluorescence intensity (a.u.).

For “TTATACATTATTTTACTTGTTTATCCTAGTTGTTATAAATCGGAGTCACCTAGTGCAG”, the binding signal is 8192 fluorescence intensity (a.u.).

For the sequence “CTGCATTATGTTTGTTGATCACTGCATGCTTAATGCATATCGGAGTCACCTAGTGCAG”, the binding signal is 8480 fluorescence intensity (a.u.).

As to “CCTTTTTTTATTTTTTTGGGGTTGCTTTGATGAGAGGCTGCGGAGTCACCTAGTGCAG”, the binding signal is 11400 fluorescence intensity (a.u.).

Consider “CAATGGGGCATCCAATTGTCACCGAACTTACCACCAAACCCGGAGTCACCTAGTGCAG”, for which the binding signal was 8280 fluorescence intensity (a.u.).

For the sequence “GTCACGCATAAAGTATTAATTATGTTTTATCATCTAACAACGGAGTCACCTAGTGCAG”, the binding signal was 8810 fluorescence intensity (a.u.).

For the sequence “CATCCACCTCATTGCTCTTATCCGATCACCATTAGTACTCCGGAGTCACCTAGTGCAG”, the binding signal was 11700 fluorescence intensity (a.u.).

“TTGCTACCGGTACCATTACGAACGCCCTTAACAAGCCAACCGGAGTCACCTAGTGCAG”: the binding signal is 10100 fluorescence intensity (a.u.).

In the case of “TGGTCTTGCTGGTTGCTGCGTATTTGGCTGTATTGGTTATCGGAGTCACCTAGTGCAG”, the binding signal is 8380 fluorescence intensity (a.u.).

On to “ACGGTTATGCAACTTTTGCCAATTATAGATGGAGATTCACCGGAGTCACCTAGTGCAG”, for which the binding signal is 8390 fluorescence intensity (a.u.).

Turning to “CTTATTATTGTCATAGTTTCACTTAGAACTAGGCTATGTTCGGAGTCACCTAGTGCAG”, the binding signal is 8400 fluorescence intensity (a.u.).

For “CTTTTCTTTCTTTTCTTTTCCTTTCTTTTTCCTTCTCTCTCGGAGTCACCTAGTGCAG”, the binding signal is 10900 fluorescence intensity (a.u.).

Turning to “GTTAATGTGTTTTGTACTAAGTTACTTTAGTCAAACTATACGGAGTCACCTAGTGCAG”, the binding signal was 11600 fluorescence intensity (a.u.).

“CACCACCCAACCCCAACGTACCCAGCGCCCAAAGTCAGACCGGAGTCACCTAGTGCAG”: the binding signal was 10300 fluorescence intensity (a.u.).

For “ACGGCTGAGAGTCACCCTGATATTTGAGTCCCGTTCGATCCGGAGTCACCTAGTGCAG”, the binding signal was 8650 fluorescence intensity (a.u.).

As for “TTCCTGCGGTCCAATCAAACAACCATTCCTGTGTTTTTCCCGGAGTCACCTAGTGCAG”, the binding signal is 12900 fluorescence intensity (a.u.).

As for “GCGTCCACCGCATACTCTCGCCTCTGAATCTTTGCGCCCACGGAGTCACCTAGTGCAG”, the binding signal is 9640 fluorescence intensity (a.u.).

As to “CTTTTTTTTTCTTTTTGTTGTGCACAGCTCTTGTTCTCCACGGAGTCACCTAGTGCAG”, the binding signal is 8520 fluorescence intensity (a.u.).

With “GGAGGCAAGAGCGCGAGACGCGAGGAGAGGGTTAGGGTTTCGGAGTCACCTAGTGCAG”, the binding signal is 8740 fluorescence intensity (a.u.).

For “ATCTCACACGTTGCTCATCATGTCGTCACACTCTCCAGCTCGGAGTCACCTAGTGCAG”, the binding signal is 12900 fluorescence intensity (a.u.).

For the sequence “TTGCTTGCACTGTTTGATCACTCGTCTTATTCAAAAATTTCGGAGTCACCTAGTGCAG”, the binding signal is 8210 fluorescence intensity (a.u.).

Regarding “ACTGCCGACCGCCGCTATCGTCGTCTCTCCCGCCACCCGTCGGAGTCACCTAGTGCAG”, the binding signal was 9290 fluorescence intensity (a.u.).

Turning to “TGTCTTGTTTTTTAAAAAAAGGGCCCAACTTTTTTTTTTTCGGAGTCACCTAGTGCAG”, the binding signal was 8220 fluorescence intensity (a.u.).

Turning to “CAAGCTCGTGTACTCGCAGTGCACTTTATTCACTATTTAACGGAGTCACCTAGTGCAG”, the binding signal was 9880 fluorescence intensity (a.u.).

Consider “GGCTGCATGTTACGCAAAGCTTTGTTTCGATATAGGGGTTCGGAGTCACCTAGTGCAG”, for which the binding signal is 10800 fluorescence intensity (a.u.).

For the sequence “CCAAATCCGGTGACTCCACCTTCGTTACACCTACAAGTTCCGGAGTCACCTAGTGCAG”, the binding signal was 8520 fluorescence intensity (a.u.).

Take “AACTGAACATTACCTTTTTCTTTTTTACCCTACGTTAACGCGGAGTCACCTAGTGCAG”: the binding signal is 8760 fluorescence intensity (a.u.).

Turning to “ATCATCACACTCTTGCATACGTGCTTGTTGTCAACTCCATCGGAGTCACCTAGTGCAG”, the binding signal was 9440 fluorescence intensity (a.u.).

With “ATCAGCGACCCATGTCCCTCTAATTTTACGTCAGAGGACTCGGAGTCACCTAGTGCAG”, the binding signal is 8460 fluorescence intensity (a.u.).

With “AAATCTTATGTTGTAAACCAACGCGCCTATTAACGGATTACGGAGTCACCTAGTGCAG”, the binding signal was 8720 fluorescence intensity (a.u.).

With “GCCATCCACACCTTTCCCCGTCGGCGCTTAAATCCTCCCACGGAGTCACCTAGTGCAG”, the binding signal was 9650 fluorescence intensity (a.u.).

In the case of “TTTTTCAATTTTTGGTTAAAATTTTTGGGGCTTTTCTTCGCGGAGTCACCTAGTGCAG”, the binding signal is 8990 fluorescence intensity (a.u.).

On to “TTCACTTAGGGTCCCTCTATTTGTGGCCTAGTCTGATTTTCGGAGTCACCTAGTGCAG”, for which the binding signal was 8430 fluorescence intensity (a.u.).

For the sequence “TCTCTCTTTTTTTTTTGGGTCACTTTCGTCGTCTATAAGACGGAGTCACCTAGTGCAG”, the binding signal was 8040 fluorescence intensity (a.u.).

Consider “AGTTTTGTGGATGGGTATAATGACGTTATAACAACGTTTTCGGAGTCACCTAGTGCAG”, for which the binding signal is 10200 fluorescence intensity (a.u.).

Consider “GTGTGTATATTTCAAGATTTTCATTTTACATGTATGAACTCGGAGTCACCTAGTGCAG”, for which the binding signal was 8400 fluorescence intensity (a.u.).

With “ACTGGCTTCTATCCTTCTCAAATCTGTCGATATCTAGCTTCGGAGTCACCTAGTGCAG”, the binding signal is 8140 fluorescence intensity (a.u.).

Consider “ATCATCACCCATATCCCTACATGGCAACATATATACGTAGCGGAGTCACCTAGTGCAG”, for which the binding signal is 8360 fluorescence intensity (a.u.).

Take “CATCAGTTTCACACGAATTTTCTTTAATTTAAATTTCCCGCGGAGTCACCTAGTGCAG”: the binding signal is 9160 fluorescence intensity (a.u.).
